Results are given in words; binding and its absence hold for the method and conditions named. Some entries that bind do so weakly or less than the wild type. Tags and fused reporters may be left off the sequences shown. Each block holds one binder with its values, some of them ahead of it.
Legend:
[1] = target: T1, CD200R entire ectodomain, biotinylated bait (rat) (UniProt Q9ES58); test: AVEXIS (avidity-based extracellular interaction screening); biotinylated monomeric baits, dialyzed against HBS, immobilised on streptavidin-coated 96-well plates; pentameric beta-lactamase-tagged preys incubated one hour; washed with HBS/0.1% Tween-20; nitrocefin hydrolysis read as absorbance at 485 nm
T1 sequence (chain, biotinylated (site not stated)): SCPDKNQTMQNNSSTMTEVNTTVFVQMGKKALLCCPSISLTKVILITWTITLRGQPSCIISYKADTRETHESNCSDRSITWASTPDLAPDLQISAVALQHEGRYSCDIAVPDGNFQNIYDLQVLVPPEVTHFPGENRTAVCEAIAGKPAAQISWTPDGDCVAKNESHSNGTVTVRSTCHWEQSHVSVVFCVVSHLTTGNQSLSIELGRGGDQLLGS

[2] = target: T2, TMEM95 entire ectodomain, monomeric biotinylated bait (mouse) (UniProt P0DJF3); test: as above
T2 sequence (chain, biotinylated (site not stated)): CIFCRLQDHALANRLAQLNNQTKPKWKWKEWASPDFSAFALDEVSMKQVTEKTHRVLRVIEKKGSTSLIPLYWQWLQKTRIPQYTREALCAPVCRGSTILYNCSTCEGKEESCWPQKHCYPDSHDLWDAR

binding [1]: binds | binding [2]: no binding
B1: CD200 entire ectodomain, pentameric beta-lactamase-tagged prey (domain or fragment, UniProt P04218 31-232)
chain: QVEVVTQDERKLLHTTASLRCSLKTTQEPLIVTWQKKKAVGPENMVTYSKAHGVVIQPTYKDRINITELGLLNTSITFWNTTLDDEGCYMCLFNMFGSGKVSGTACLTLYVQPIVHLHYNYFEDHLNITCSATARPAPAISWKGTGSGIENSTESHSHSNGTTSVTSILRVKDPKTQVGKEVICQVLYLGNVIDYKQSLDKG

binding [2]: no binding
B2: IZUMO1 entire ectodomain, pentameric beta-lactamase-tagged prey (domain or fragment, UniProt Q9D9J7 22-319)
chain: CIKCDQFVTDALKTFENTYLNDHLPHDIHKNVMRMVNHEVSSFGVVTSAEDSYLGAVDENTLEQATWSFLKDLKRITDSDLKGELFIKELLWMLRHQKDIFNNLARQFQKEVLCPNKCGVMSQTLIWCLKCEKQLHICRKSLDCGERHIEVHRSEDLVLDCLLSWHRASKGLTDYSFYRVWENSSETLIAKGKEPYLTKSMVGPEDAGNYRCVLDTINQGHATVIRYDVTVLPPKHSEENQPPNIITQEEHETPVHVTPQTPPGQEPESELYPELHPELYPELIPTVAQNPEKKMKTR
